# Results taken from publication PMC7862700.
# Amino acid sequences for entries named in this document (tags omitted). A change or cut given only in a name is not applied to a line headed by its entry.
# UniProt Q99607: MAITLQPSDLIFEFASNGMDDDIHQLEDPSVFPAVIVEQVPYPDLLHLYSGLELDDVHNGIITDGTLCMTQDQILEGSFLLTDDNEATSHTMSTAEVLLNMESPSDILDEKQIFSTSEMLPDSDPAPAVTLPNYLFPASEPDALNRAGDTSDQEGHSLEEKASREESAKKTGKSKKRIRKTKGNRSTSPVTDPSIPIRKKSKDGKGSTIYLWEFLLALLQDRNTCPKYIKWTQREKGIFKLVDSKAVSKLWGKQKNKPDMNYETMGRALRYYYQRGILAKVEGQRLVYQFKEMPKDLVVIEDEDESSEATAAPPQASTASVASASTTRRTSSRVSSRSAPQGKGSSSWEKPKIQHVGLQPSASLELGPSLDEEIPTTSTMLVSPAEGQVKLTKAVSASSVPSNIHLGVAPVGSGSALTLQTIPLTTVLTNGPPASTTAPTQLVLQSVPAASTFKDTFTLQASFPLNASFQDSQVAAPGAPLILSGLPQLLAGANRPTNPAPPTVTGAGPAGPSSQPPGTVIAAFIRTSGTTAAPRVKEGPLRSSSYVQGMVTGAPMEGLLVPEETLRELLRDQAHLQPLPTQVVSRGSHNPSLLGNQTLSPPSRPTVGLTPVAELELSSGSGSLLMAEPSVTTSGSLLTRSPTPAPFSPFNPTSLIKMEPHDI
# UniProt Q01892: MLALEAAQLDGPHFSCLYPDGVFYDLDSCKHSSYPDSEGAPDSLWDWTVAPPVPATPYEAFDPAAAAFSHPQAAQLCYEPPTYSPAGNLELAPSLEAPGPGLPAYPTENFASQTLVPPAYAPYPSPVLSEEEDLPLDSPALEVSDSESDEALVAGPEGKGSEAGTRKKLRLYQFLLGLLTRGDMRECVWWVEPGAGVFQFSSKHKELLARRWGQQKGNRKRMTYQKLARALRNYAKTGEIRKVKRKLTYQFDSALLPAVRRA
# The list shows a part of the results, in another mix than the full data. At the low end of the ranking the order means little.
# Legend:
# Experiment in all cases: DAPPL (digital affinity profiling via proximity ligation, sequencing)
# Settings in all cases: 10 mM Tris-HCl pH 7.5, 50 mM NaCl, 1 mM DTT, 4% glycerol, room temperature, 30 min; GST-TFs on glutathione beads, 16-mer random dsDNA library, 0.1% …; high values mean tight binding; double strand, one strand shown; scale: fold enrichment (6-mer frequency, TF over GST control)
# [1] = target: T1, FLI1 (UniProt Q01543)
# T1 sequence: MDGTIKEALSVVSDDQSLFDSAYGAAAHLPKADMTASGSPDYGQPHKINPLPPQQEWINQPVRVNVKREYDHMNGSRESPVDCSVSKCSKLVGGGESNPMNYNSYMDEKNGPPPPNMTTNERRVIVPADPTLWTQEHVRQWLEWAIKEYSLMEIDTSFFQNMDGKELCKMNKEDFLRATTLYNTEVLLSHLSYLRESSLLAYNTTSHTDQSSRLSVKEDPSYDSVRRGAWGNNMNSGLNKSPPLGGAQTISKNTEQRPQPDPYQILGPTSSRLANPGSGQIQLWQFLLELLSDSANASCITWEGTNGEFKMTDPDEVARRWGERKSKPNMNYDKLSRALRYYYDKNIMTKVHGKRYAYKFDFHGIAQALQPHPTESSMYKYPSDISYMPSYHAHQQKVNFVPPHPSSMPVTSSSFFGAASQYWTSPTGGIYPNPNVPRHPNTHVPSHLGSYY
# [2] = target: T2, EHF (UniProt Q9NZC4)
# T2 sequence: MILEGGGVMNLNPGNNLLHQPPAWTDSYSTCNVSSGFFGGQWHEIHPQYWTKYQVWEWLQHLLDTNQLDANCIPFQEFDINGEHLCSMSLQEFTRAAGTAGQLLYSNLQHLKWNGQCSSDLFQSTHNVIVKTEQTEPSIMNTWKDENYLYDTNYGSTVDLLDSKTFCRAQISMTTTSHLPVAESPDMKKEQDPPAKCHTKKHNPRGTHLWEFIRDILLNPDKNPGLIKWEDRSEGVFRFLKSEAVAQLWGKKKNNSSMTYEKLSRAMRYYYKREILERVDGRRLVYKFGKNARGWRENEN
# [3] = target: ELF4 (UniProt Q99607)
# [4] = target: SPIB (UniProt Q01892)
# [5] = target: T3, ETV3L (UniProt Q6ZN32)
# T3 sequence: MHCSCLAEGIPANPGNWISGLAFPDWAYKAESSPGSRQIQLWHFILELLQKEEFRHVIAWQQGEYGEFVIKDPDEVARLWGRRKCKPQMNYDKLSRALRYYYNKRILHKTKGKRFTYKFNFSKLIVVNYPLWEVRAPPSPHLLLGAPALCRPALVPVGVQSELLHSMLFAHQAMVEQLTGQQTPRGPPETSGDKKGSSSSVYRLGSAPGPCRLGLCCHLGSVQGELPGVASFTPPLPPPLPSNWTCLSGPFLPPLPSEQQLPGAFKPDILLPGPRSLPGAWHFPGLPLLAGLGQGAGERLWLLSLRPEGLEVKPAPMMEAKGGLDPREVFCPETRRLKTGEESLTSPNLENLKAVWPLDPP
# [6] = target: T4, ETV2 (UniProt O00321)
# T4 sequence: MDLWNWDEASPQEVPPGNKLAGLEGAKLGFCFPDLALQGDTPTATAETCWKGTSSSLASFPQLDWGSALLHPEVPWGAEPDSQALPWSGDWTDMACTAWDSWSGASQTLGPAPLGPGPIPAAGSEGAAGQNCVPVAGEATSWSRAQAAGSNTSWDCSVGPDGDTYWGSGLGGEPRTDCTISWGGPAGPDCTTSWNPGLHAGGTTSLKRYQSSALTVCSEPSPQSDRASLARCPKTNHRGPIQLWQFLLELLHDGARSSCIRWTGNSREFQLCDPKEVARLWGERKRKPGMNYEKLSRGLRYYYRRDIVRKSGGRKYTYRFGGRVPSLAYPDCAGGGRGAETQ
Sequence,binding signal [1],binding signal [2],binding signal [3],binding signal [4],binding signal [5],binding signal [6]
TTTCAC,1.39,1.3,1.43,–,–,–
GGACTT,0.988,1.11,1.09,–,–,–
AACTGT,0.932,0.911,0.918,0.928,0.934,–
CCCCGT,1.05,–,–,0.998,0.992,1.1
ATGGTG,1.17,–,–,–,1.04,0.958
ATCTTG,1.35,1.35,–,–,–,1.35
